Results: PMC7049960
Results are given in words; binding and its absence hold for the method and conditions named. Binding seen in cells or lysates may run through a third protein. Some results given as binding are weak or reduced against the parent protein; the word gives no strength.

T1: ATF4 bZIP TAP construct (mouse) (UniProt Q06507)
T1 sequence: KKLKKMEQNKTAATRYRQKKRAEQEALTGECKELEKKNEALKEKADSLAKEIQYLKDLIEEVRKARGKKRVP

B1: C/EBPδ (protein, UniProt Q00322 1-268)
chain: MSAALFSLDSPVRGTPWPTEPAAFYEPGRVDKPGRGPEPGDLGELGSTTPAMYDDESAIDFSAYIDSMAAVPTLELCHDELFADLFNSNHKAAGAGGLELLQGGPTRPPGVGSVARGPLKREPDWGDGDAPGSLLPAQVAVCAQTVVSLAAAAQPTPPTSPEPPRGSPGPSLAPGTVREKGAGKRGPDRGSPEYRQRRERNNIAVRKSRDKAKRRNQEMQQKLVELSAENEKLHQRVEQLTRDLAGLRQFFKKLPSPPFLPPTGADCR
B2: leucine zipper protein 1 (LUZP1) (protein, UniProt Q8R4U7 1-1068)
chain: MAELTNYKDAASNRHLRFKLQSLSRRLDELEEATKNLQRAEDELLDLQDKVIQAEGSDSSTLAEIEVLRQRVLKIEGKDEEIKRAEDLCHTMKEKLEEEENLTRELKSEIERLQKRMVDLEKLEEALSRSKNECSQLCLSLNEERNLTKKISSELEMLRVKVKELESSEDRLDKTEQSLVSELEKLKSLTLSFVNERKYLNEKEKENEKIIKELTQKLEQNKKMNRDHMRNASTFLERNDLRIEDGISSTLSSKESKRKGSLDYLKQVENETRDKSENEKNRNQEDNKVKDLNQEIEKLKTQIKHFESLEEELKKMRAKNNDLQDNYLTELNRNRSLASQLEEIKLQVRKQKELGNGDIEGEDAFLLGRGRHERTKLKGHGSEASVSKHTSRELSPQHKRERLRNREFALSNEHYSLSSKQASSPVFTNKRAAKASNMGMGTDSGTQETKRTEDRFAPGSSHSEGKRGREQPSVLSRYPPAAQEHTKVWKGAPKPGTESGLKGKVEKTTRTFSDSTHVSVPNDIVGKGDKTSDLSSEAHCGKRGQVPGHASQGTQAVESSCSKAIGALSSSQKASSEGLSKGKKTANGLAADANFSNSKAPILSKYPYSSRSQENILQGFSLPNKEGVDQPVAVVMEDSSQHEALRCRVIKSSGREKPDSDDDLDIESFVTAKLVNTTITPEPEPKPQPNSREKVKSRGGTRTALFENDKNAAIENDSVKPTRPSSNAIEFPDANCAGVKNQRPFSPREALRSRAIIKPVIIDKDVKKIMGGSGTEVVLEKQKSTSKSVTSKVTSSITIYPSDSSGPRAVPSEAPRERHTSTSNIQVGPPELTAISNHVSSPLELSIHKHDITLQLTEAERVGDGSPKNRAEMVVSRSSILIKPSESVEKNSHVPPAETIRWKSHSASSDSRHITVRNAWKSKRDLKCSEDPPTGIGRNMEATNAYTQRPCTDFLELEQPRSQPSEQGARRVGNSGDAPELSPRRTQSSLTASEVLTRRDRMGGAITAASCNHSSSMEEGEDSTFVTSRRIHNPLEHSELPGKQGLPEPEPVWTEERLHPAKPYAEED

Target: T1, ATF4 bZIP TAP construct (mouse)
Assay: co-IP; one-step pulldown with anti-FLAG magnetic beads from pooled extracts of mouse TA muscles (12 mice) expressing the ATF4 bZIP TAP construct or the empty TAP construct, SDS-PAGE and immunoblot of endogenous proteins

binding, binds:
MAF/c-Maf (from UniProt P54843-1 1-370), B1, B2
